Measurements reported in PubChem BioAssay AID651640 (Broad Institute, 2012).
Several values for one entry are separate records, joined by “and”; a condition that tells them apart may be missing. Equal values may be shown once. The whole screen tested about 350,000 compounds, of which about 6,000 (1.7%) were called active. The shares of active, inactive and inconclusive entries below differ from those in the screen. Cut-off read from the data, not from the text of the source: active = CPE inhibition above about 20% (passing the limit was not always enough); inconclusive = no clear call, values can overlap the other calls; tested in BHK-21 cells.

experiment: protection of cells from dengue 2 killing – plate reader, single concentration, primary screen (AID 651640); conditions: DENV2-infected cells, cytopathic effect rescue, at 9.99 µM, stronger effect = higher value;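 note: 0% = median of neutral control wells and 100% = median of positive control wells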

Row | SMILES | CPE inhibition
1 | CC(C)NC(=O)N(C)C[C@H]1OCCCC[C@H](C)Oc2ccc(NC(=O)Nc3ccc(C(F)(F)F)cc3)cc2C(=O)N([C@@H](C)CO)C[C@H]1C | inconclusive: 44.5%
2 | O=C(NCCCO)c1c(O)c2cccc3c2n(c1=O)CCC3 | inconclusive: 21%
3 | Cc1nnc(Nc2ccccc2F)s1 | inconclusive: 28.6%
4 | C[C@H]1CN([C@@H](C)CO)C(=O)Cc2cc(NC(=O)Nc3ccc4c(c3)OCO4)ccc2O[C@@H]1CN(C)S(C)(=O)=O | active: 26.1%
5 | C#CCNC(=O)C1=C[C@H](c2cn(C(C)=O)c3ccccc23)[C@@H](CCCO)[C@H](OCC)O1 | inconclusive: 78.5%
6 | Cc1ccc(C(=O)OC(C)C(=O)NC2CCCCC2C)cc1S(=O)(=O)N1CCCCC1 (stereo not given) | inconclusive: 31.1%
7 | Nc1sc(Cc2ccccc2)cc1C(=O)c1c(-c2ccccc2)[nH]c2ccccc12 | active: 83.6%
8 | CC1CCCN(S(=O)(=O)c2cccc(C(=O)NCCCN3CCCC3=O)c2)C1 (stereo not given) | inconclusive: 22.1%
9 | C[C@H](CO)N1C[C@H](C)[C@@H](CN(C)C(=O)Nc2cccc(F)c2)OCc2cn(nn2)CCCC1=O | inconclusive: 24.7%
10 | Fc1cccc(Cn2cc(C(=S)N3CCOCC3)c3ccccc32)c1 | inactive: 9.56%
11 | O=C(NCc1ccco1)/C(=C/c1ccco1)NC(=O)c1ccc(Br)o1 | inconclusive: 75.3%
12 | CCCCNC(=O)c1onc(CSc2ccccc2F)c1C(=O)O | inconclusive: 71.6%
13 | CCCN1C[C@H](C)[C@@H](OC)CN(C)C(=O)c2ccc(NC(=O)c3cccc(F)c3)cc2OC[C@@H]1C | active: 28.7%
14 | O=C(Cc1cccnc1)N1CC2(C1)[C@H](c1ccccc1)[C@H](CO)N2C(=O)C1CCCCC1 | inactive: -1.57%
15 | O=S(=O)(c1ccc(F)cc1F)N1CCN(CCO)CC1 | inconclusive: 38.1%
16 | COc1ccc(C2C(C(=O)Nc3ccc(F)cc3)=C(C)Nc3nc(CCCO)nn32)cc1 (stereo not given) | active: 28.5%
17 | C[C@@H]1CCCCO[C@@H](CN(C)CC2CC2)[C@@H](C)CN([C@H](C)CO)C(=O)c2cc(NS(=O)(=O)c3ccc(Cl)cc3)ccc2O1 | active: 47.9%
18 | CC(C)Cn1c(N)c(/C=N/NC(=O)c2ccc(Cl)cc2)c(=O)n(C)c1=O | inconclusive: 29.2%
19 | CCOc1ccc2c(c1)/C(=C(\C(Cl)=C(Cl)Cl)[N+](=O)[O-])N2 | inconclusive: 30.2%
20 | O=C(CSc1nc2ccccc2[nH]1)Nc1nc(-c2cccc(Br)c2)cs1 | inactive: 5.74%
21 | Cc1cccc(NS(=O)(=O)c2cc3c(cc2C)NC(=O)CO3)c1 | inactive: -0.983%
22 | COc1ccc2c3c(n(C)c2c1)[C@@H](CO)N(CC1CC1)CC31CCN(C(=O)NC2CCCC2)CC1 | inactive: -9.01%
23 | COC(c1ccccc1)c1nnc(CCC(=O)N2CCCCCCC2)o1 (stereo not given) | inconclusive: 21.3%
24 | COc1cccc(-c2ccc3c(c2)[C@H]2[C@H](CCN2S(=O)(=O)c2cn(C)cn2)[C@@H](CO)N3)c1 | active: 98.4%
25 | C[C@H](CO)N1C[C@H](C)[C@H](CN(C)C(=O)Nc2ccc(F)cc2)Oc2cc(/C=C/c3ccccc3)ccc2S1(=O)=O | inactive: -8%

Row | SMILES | CPE inhibition
26 | CCn1c(SCC(=O)Nc2ccc(OC)c(OC)c2)nnc1-c1cnccn1 | inconclusive: 67.3%
27 | Nc1ncnc(SCc2c(F)cccc2Cl)n1 | inconclusive: 23.6%
28 | COc1cccc(C(=O)Nc2ccc3[nH]ncc3c2)c1 | inconclusive: 30.4%
29 | C[C@@H](NC(=O)C[C@H]1CC[C@H]2[C@@H](COC[C@H](O)CN2C(=O)Nc2cc(Cl)cc(Cl)c2)O1)c1ccccc1 | inactive: 2.25%
30 | C[C@H]1CN([C@@H](C)CO)C(=O)c2cc(C#CC3(O)CCCC3)cnc2O[C@@H]1CN(C)C | inconclusive: 37.9%
31 | Cc1nc(SCC(=O)NC(=O)NC2CCCCC2)nc(C)c1C | inconclusive: 23.4%
32 | C[C@@H]1CN([C@H](C)CO)C(=O)c2cc(NC(=O)Nc3ccc4c(c3)OCO4)ccc2O[C@@H]1CN(C)C(=O)Nc1ccccc1 | inactive: 8.71%
33 | COc1ccc(S(=O)(=O)Nc2ccc3c(c2)C(=O)N([C@@H](C)CO)C[C@@H](C)[C@H](CN(C)Cc2ccc(-c4ccccc4)cc2)O3)cc1 | inactive: -6.95%
34 | O=C(C[C@H]1CC[C@H](NS(=O)(=O)c2ccccc2)[C@@H](CO)O1)N1CCC(Cc2ccccc2)CC1 | inconclusive: 22.6%
35 | CCOC(=O)N(C)C[C@H]1OCc2cn(nn2)CCCC(=O)N([C@H](C)CO)C[C@H]1C | inconclusive: 24%
36 | CCC(=O)N[C@H]1CC[C@@H](CC(=O)NCc2ccc(OC)cc2)O[C@@H]1CO | inconclusive: 38.1%
37 | C[C@@H]1CN([C@@H](C)CO)C(=O)c2cc(-c3ccc(F)cc3)cnc2O[C@H]1CN(C)CC1CCOCC1 | inconclusive: 13.5%
38 | Cc1ccnc(NC(=O)c2ccc(C(=O)c3ccccc3)cc2)c1 | inconclusive: 60.9%
39 | CC(=O)c1ccc(OCc2cc(C(=O)N(C)Cc3ccccn3)no2)cc1 | inconclusive: 21.4%
40 | C=CCc1ccc(OCCCNCc2ccccc2)c(OC)c1 | active: 43.1%
41 | O=C(NCCCc1ccccc1)c1cncc(Br)c1 | inconclusive: 29.7%
42 | COc1ccc(-n2c(=S)[nH]c(=O)c3cccnc32)cc1 | inconclusive: 22.8%
43 | O=C(CN1C(=O)NC2(CCc3ccccc32)C1=O)NC1CCCCC1 (stereo not given) | inconclusive: 60.7%
44 | CSc1ccccc1NC(=O)Cn1c([N+](=O)[O-])cnc1C | inconclusive: 23.1%
45 | C/C=C/c1cnc2c(c1)C(=O)N([C@H](C)CO)C[C@@H](C)[C@@H](CN(C)C(=O)Nc1ccccc1F)O2 | active: 30.2%
46 | O=C(NC1CCCC1)N1CC2(C1)[C@H](c1ccccc1)[C@@H](CO)N2CC1CCOCC1 | active: 38.1%
47 | CCCCN(C)CCCNC(=O)c1cc(-c2cccs2)nc2ccccc12 | active: 41.4%
48 | O=C(Nc1c(Cl)cccc1Cl)c1cc(-c2ccco2)on1 | inconclusive: 20.8%
49 | CCCNC(=O)N1CC2(C1)[C@@H](c1ccccc1)[C@H](CO)N2CC1CC1 | inconclusive: 32.1%
50 | Cc1ccc2nc(N(CCN(C)C)C(=O)c3ccc4c(c3)OCCO4)sc2c1 | inconclusive: 61.8%

Shown tab-delimited: part of the list above
Row	SMILES	CPE inhibition
35	CCOC(=O)N(C)C[C@H]1OCc2cn(nn2)CCCC(=O)N([C@H](C)CO)C[C@H]1C	inconclusive: 24%
36	CCC(=O)N[C@H]1CC[C@@H](CC(=O)NCc2ccc(OC)cc2)O[C@@H]1CO	inconclusive: 38.1%
37	C[C@@H]1CN([C@@H](C)CO)C(=O)c2cc(-c3ccc(F)cc3)cnc2O[C@H]1CN(C)CC1CCOCC1	inconclusive: 13.5%

Later entries

Row | SMILES | CPE inhibition
51 | O=C(C[C@@H]1CC[C@@H](NC(=O)c2ccc(F)cc2)[C@@H](CO)O1)NCc1ccncn1 | inactive: 1.39%
52 | CC1CC(C)CN(C(=O)c2ccc(NC(=O)c3ccc(=O)[nH]c3)cc2)C1 (stereo not given) | inconclusive: 50.8%
53 | Cc1c(C(=O)NC(C)C2CC3CCC2C3)cccc1[N+](=O)[O-] (stereo not given) | inconclusive: 40%
54 | Cc1ccc(-c2ccc(CN3C(C)C(=O)N(Cc4cn(CCC5OCCCO5)nn4)CCS3(=O)=O)cc2)cc1 (stereo not given) | active: 86.5%
55 | COc1cc2oc3cc(C#Cc4ccc(N)cc4)ccc3c(=O)c2cc1OC | inconclusive: 20.8%
56 | COc1ccc(NC(=O)N(C)C[C@@H]2Oc3c(NC(=O)Nc4ccc5c(c4)OCO5)cccc3C(=O)N([C@@H](C)CO)C[C@H]2C)cc1 | inactive: 2.79%
57 | C/C=C/c1ccc(C2[C@H]3CNC[C@@H]2N3C(=O)Nc2ccc(F)cc2)cc1 (stereo not given in full) | inactive: 0.029% and inactive: 10.5%
58 | C[C@@H]1CCCCO[C@H](CN(C)C(=O)CCC(F)(F)F)[C@H](C)CN([C@H](C)CO)C(=O)c2cc(NS(=O)(=O)c3ccccc3)ccc2O1 | inconclusive: 46.2% and inactive: 17.6%
59 | CCOC(=O)c1ccc(N2C(=O)[C@@H](c3ccccc3)[C@H]2c2ccccc2)cc1 | inconclusive: 26.9%
60 | CCN1C(C)=C(C)S/C1=C1\SC(=S)N(C2CCCCC2)C1=O | inactive: 13.4%
61 | O=C(CCC1CCCN(Cc2cccc3c2OCO3)C1)NCc1ccc(F)c(F)c1 (stereo not given) | inactive: 2.7%
62 | COc1ccccc1-c1cnc2c(c1)C(=O)N([C@H](C)CO)C[C@H](C)[C@H](CN(C)C(=O)c1ccccc1)O2 | inconclusive: 47.3%
63 | CC(C)(C)OC(=O)N1CCCC(C(=O)Nc2cccc(C(=O)NC3CC3)c2)C1 (stereo not given) | inconclusive: 58%
64 | C[C@@H]1CCCCO[C@H](CN(C)Cc2ccncc2)[C@H](C)CN([C@H](C)CO)C(=O)c2cc(NS(=O)(=O)c3ccccc3)ccc2O1 | active: 28%
65 | O=C(CNC(=O)c1ccccn1)N=Nc1c(O)[nH]c2ccccc12 | inconclusive: 41.8%
66 | O=C(C[C@H]1CC[C@@H]2[C@H](COC[C@@H](O)CN2S(=O)(=O)c2ccccc2)O1)N1CCOCC1 | inconclusive: 24.5%
67 | CCn1c(C)c(C)c2cc(C(=O)NCCCN3CCOCC3)ccc21 | inconclusive: 20.7%
68 | COc1ccc(-c2coc3c(C(=O)Nc4ccc(OC)nc4)cccc23)c(C)c1 | inconclusive: 25%
69 | CCNC(=O)[C@H]1[C@H](CO)[C@H]2Cn3c(ccc(-c4cccc(OC)c4)c3=O)[C@H]2N1C(=O)NC(C)C | active: 31.1%
70 | CCCNC(=O)N1C[C@H](C)[C@H](OC)CN(C)C(=O)c2ccc(NS(=O)(=O)CC(F)(F)F)cc2OC[C@@H]1C | inactive: 3.75%
71 | CC(C)(CSc1ncccn1)NS(=O)(=O)c1ccccc1 | inconclusive: 21.2%
72 | CO[C@@H]1CN(C)C(=O)c2cc(NC(=O)c3ccc(-c4ccccc4)cc3)ccc2OC[C@H](C)NC[C@H]1C | inactive: -9.78%
73 | CSc1ccc(CN2CCC(C)(Oc3ccc(CC#N)cc3)C2)cc1 (stereo not given) | inconclusive: 23.4%
74 | O=C(Nc1ccc(Cl)cc1)N(CCCN1CCOCC1)Cc1cccs1 | active: 25.5%
75 | CCOC(=O)C1CCCN(C2CC(=O)N(c3ccccc3)C2=O)C1 (stereo not given) | inactive: -6.5%
